Patent US10105400B2, “Composition of chicken liver hydrolysates and method for improving alcohol metabolism, as well as preventing and treating liver fibrosis” (NATIONAL TAIWAN UNIVERSITY, priority 2016, dated 2018)

Experiment: Body weight and feed efficiency, thioacetamide (TAA) liver fibrosis model
Type: in vivo, Wistar rats
Settings: CNS group: 200 mg/kg-bw carnosine oral gavage daily, 10 weeks, TAA 100 mg/kg-bw i.p.
Procedure: Forty male Wistar rats of 5-week old were purchased from BioLASCO Taiwan Co., Ltd. (Taipei, Taiwan). Two rats were housed in one cage in an animal room at 22±2° C. with a 12/12 h light-dark cycle. After one week of acclimation, the mice were randomly divided into 5 groups:
(a) The control group (The CON group): intraperitoneal injection of 0.3 mL normal saline, and administration of 0.5 mL ddH2O by oral gavage;
(b) The thioacetamide group (The TAA group): intraperitoneal injection of 100 mg TAA/kg-body weight (bw) in 0.3 mL ddH2O and administration of 0.5 mL ddH2O by oral gavage;
(c) The composition of the chicken liver hydrolysates with low dosage (The CLH-L group): intraperitoneal injection of 100 mg TAA/kg-bw in 0.3 mL ddH2O and administration of 200 mg/kg-bw CLH in 0.5 mL ddH2O by oral gavage; […]
The experiment was conducted by a complete randomized design. The raw data was expressed as “mean±SEM”. The data was analyzed by analysis of variance (ANOVA) and Fisher's Least Significant Different (LSD) test was used to distinguish significant differences among groups. […]

NCCC(=O)N[C@@H](Cc1cnc[nH]1)C(=O)O [CNS, carnosine]
Food intake: 28.43 ± 0.50^ab g/rat/day
Water intake: 44.70 ± 4.68^a mL/rat/day
